Results are given in words; binding and its absence hold for the method and conditions named. In cells and extracts the contact can be indirect. Some results given as binding are weak or reduced against the parent protein; the word gives no strength. Tags and fused reporters may be left off the sequences shown.

We go through one molecule from PMC6312924.

The target in the experiment is T1, myc-tagged full length cyclin G-associated kinase (GAK) wildtype (mouse) (UniProt Q3UIZ0).
T1 sequence: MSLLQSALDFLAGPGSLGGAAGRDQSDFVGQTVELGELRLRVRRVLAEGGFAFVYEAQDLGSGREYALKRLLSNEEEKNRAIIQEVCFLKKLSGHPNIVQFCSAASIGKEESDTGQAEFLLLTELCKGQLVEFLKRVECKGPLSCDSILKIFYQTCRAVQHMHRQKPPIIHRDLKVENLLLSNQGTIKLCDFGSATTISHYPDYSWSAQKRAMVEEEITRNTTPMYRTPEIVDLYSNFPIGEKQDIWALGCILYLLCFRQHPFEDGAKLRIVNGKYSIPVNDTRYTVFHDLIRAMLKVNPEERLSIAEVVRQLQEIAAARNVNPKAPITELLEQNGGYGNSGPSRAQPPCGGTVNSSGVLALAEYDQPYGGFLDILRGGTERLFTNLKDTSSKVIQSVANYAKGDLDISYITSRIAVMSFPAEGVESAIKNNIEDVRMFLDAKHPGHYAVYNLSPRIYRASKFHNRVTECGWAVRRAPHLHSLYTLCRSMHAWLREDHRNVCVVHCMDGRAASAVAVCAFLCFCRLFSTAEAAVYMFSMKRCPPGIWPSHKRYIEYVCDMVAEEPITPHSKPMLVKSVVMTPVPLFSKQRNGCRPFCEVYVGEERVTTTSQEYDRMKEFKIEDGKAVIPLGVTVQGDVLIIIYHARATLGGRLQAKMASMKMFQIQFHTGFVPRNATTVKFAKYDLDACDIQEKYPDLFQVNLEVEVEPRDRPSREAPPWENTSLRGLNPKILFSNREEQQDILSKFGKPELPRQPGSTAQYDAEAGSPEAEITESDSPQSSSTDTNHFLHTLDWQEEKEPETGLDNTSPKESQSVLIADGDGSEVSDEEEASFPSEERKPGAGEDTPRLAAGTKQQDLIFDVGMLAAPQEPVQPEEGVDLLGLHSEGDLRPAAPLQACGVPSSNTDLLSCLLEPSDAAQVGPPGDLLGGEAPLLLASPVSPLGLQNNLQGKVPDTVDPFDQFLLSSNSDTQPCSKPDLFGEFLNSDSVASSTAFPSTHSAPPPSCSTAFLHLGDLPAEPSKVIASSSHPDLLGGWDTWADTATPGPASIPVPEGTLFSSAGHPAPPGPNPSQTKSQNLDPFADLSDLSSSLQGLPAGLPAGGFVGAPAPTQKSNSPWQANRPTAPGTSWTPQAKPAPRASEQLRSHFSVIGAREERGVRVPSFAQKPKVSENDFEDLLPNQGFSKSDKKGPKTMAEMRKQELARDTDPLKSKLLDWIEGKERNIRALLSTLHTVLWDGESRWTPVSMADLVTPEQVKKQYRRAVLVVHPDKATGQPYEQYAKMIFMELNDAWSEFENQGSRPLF
Kind of experiment: co-IP; HEK 293T cells co-transfected with myc-tagged FL GAK and the HA-tagged partner; GAK immunoprecipitated (GAK antibody), partner detected by blot; HA- and myc-tagged pRK5 vectors as IP controls.

B1: HA-tagged Sipa1L1 Act1 domain (domain or fragment, UniProt Q8C0T5 1-627)
chain: MTSLKRSQTERPVTADRASVVSTDGAPKVHTDDFYMRRFRSQNGSLGSSVMAAVGPPRSEGPHHITSTPGVPKMGVRARIADWPPRKENVKESSRSSQEIETSSCLESLSSKGSPVSQGSSVSLNSNDSAMLKSIQNTLKNKTGPAESMDSRFLMPEAYPSSPRKALRRIRQRSNSDITISELDVDSFDECISPTYKSGPSLHREYGSTSSIDKQGTSGDSFFDLLKGYKDDRSDRGPTPTKLSDFLITGGGKGSGFSLDVIDGPISQRENLRLFKEREKPLKRRSKSETGDSSIFRKLRNAKGEELGKSSDLEDNRSEDSVRPWTCPKCFAHYDVQSILFDLNEAIMNRHNVIKRRNTTTGASAAAVASLVSGPLSHSASFSSPMGSTEDLNSKGSLGMDQGDDKSNELVMSCPYFRNEIGGEGERKISLSKSNSGSFSGCESTSFESALSSHCTNAGVAVLEVPKESLMLHLDRVKRYTVEHVDLGAYYYRKFFYQKEHWNYFGADENLGPVAVSIRREKPEDMKENGSPYNYRIIFRTSELMTLRGSVLEDAIPSTAKHSTARGLPLKEVLEHVIPELNVQCLRLAFNTPKVTEQLMKLDEQGLNYQQKVGIMYCKAGQSTEEE
Consider B1, for which the binding result is “binds”.
